Data as given in publication PMC3507856, “Two glutamic acid residues in the DNA-binding domain are engaged in the release of STAT1 dimers from DNA” (BMC Cell Biology, 2012).
Results are given in words; binding and its absence hold for the method and conditions named. Some results given as binding are weak or reduced against the parent protein; the word gives no strength.

Molecular target: endogenous (native) STAT1 of HeLa cells (human (endogenous in HeLa)) (UniProt P42224)
Assay: native gel or EMSA; whole cell lysates of HeLa cells (IFNγ 45 min, then staurosporine for the durations indicated) incubated in vitro with 32P-labelled M67 DNA (single high-affinity GAS site); STAT1 dimers seen as DNA-bound complexes on a 4% acrylamide gel at 4°C; homo- and heterodimers told apart by mobility

B1: STAT1-WT-GFP (wild-type human STAT1 fused to green fluorescent protein) (natural protein, UniProt P42224 1-746, looked up)
chain: MSQWYELQQLDSKFLEQVHQLYDDSFPMEIRQYLAQWLEKQDWEHAANDVSFATIRFHDLLSQLDDQYSRFSLENNFLLQHNIRKSKRNLQDNFQEDPIQMSMIIYSCLKEERKILENAQRFNQAQSGNIQSTVMLDKQKELDSKVRNVKDKVMCIEHEIKSLEDLQDEYDFKCKTLQNREHETNGVAKSDQKQEQLLLKKMYLMLDNKRKEVVHKIIELLNVTELTQNALINDELVEWKRRQQSACIGGPPNACLDQLQNWFTIVAESLQQVRQQLKKLEELEQKYTYEHDPITKNKQVLWDRTFSLFQQLIQSSFVVERQPCMPTHPQRPLVLKTGVQFTVKLRLLVKLQELNYNLKVKVLFDKDVNERNTVKGFRKFNILGTHTKVMNMEESTNGSLAAEFRHLQLKEQKNAGTRTNEGPLIVTEELHSLSFETQLCQPGLVIDLETTSLPVVVISNVSQLPSGWASILWYNMLVAEPRNLSFFLTPPCARWAQLSEVLSWQFSSVTKRGLNVDQLNMLGEKLLGPNASPDGLIPWTRFCKENINDKNFPFWLWIESILELIKKHLLPLWNDGCIMGFISKERERALLKDQQPGTFLLRFSESSREGAITFTWVERSQNGGEPDFHAVEPYTKKELSAVTFPDIIRNYKVMAAENIPENPLKYLYPNIDKDHAFGKYYSRPKEAPEPMELDGPKGTGYIKTELISVSEVHPSRLQTTDNLLPMSPEEFDEVSRIVGSVEFDSM
modifications: tyrosine-phosphorylated (phospho-Tyr701) after stimulation of cells with IFNγ
notes: also called STAT1-GFP; GFP-tagged wild-type STAT1; source: HeLa cells, transfected (pEGFP-N1-STAT1), IFNγ-stimulated, in whole cell lysate; not shown: GFP, C-terminal, kept
For B1, the binding was “binds”.

B2: STAT1-E411A-GFP (natural protein, human, UniProt P42224 1-746, looked up)
chain: MSQWYELQQLDSKFLEQVHQLYDDSFPMEIRQYLAQWLEKQDWEHAANDVSFATIRFHDLLSQLDDQYSRFSLENNFLLQHNIRKSKRNLQDNFQEDPIQMSMIIYSCLKEERKILENAQRFNQAQSGNIQSTVMLDKQKELDSKVRNVKDKVMCIEHEIKSLEDLQDEYDFKCKTLQNREHETNGVAKSDQKQEQLLLKKMYLMLDNKRKEVVHKIIELLNVTELTQNALINDELVEWKRRQQSACIGGPPNACLDQLQNWFTIVAESLQQVRQQLKKLEELEQKYTYEHDPITKNKQVLWDRTFSLFQQLIQSSFVVERQPCMPTHPQRPLVLKTGVQFTVKLRLLVKLQELNYNLKVKVLFDKDVNERNTVKGFRKFNILGTHTKVMNMEESTNGSLAAEFRHLQLKAQKNAGTRTNEGPLIVTEELHSLSFETQLCQPGLVIDLETTSLPVVVISNVSQLPSGWASILWYNMLVAEPRNLSFFLTPPCARWAQLSEVLSWQFSSVTKRGLNVDQLNMLGEKLLGPNASPDGLIPWTRFCKENINDKNFPFWLWIESILELIKKHLLPLWNDGCIMGFISKERERALLKDQQPGTFLLRFSESSREGAITFTWVERSQNGGEPDFHAVEPYTKKELSAVTFPDIIRNYKVMAAENIPENPLKYLYPNIDKDHAFGKYYSRPKEAPEPMELDGPKGTGYIKTELISVSEVHPSRLQTTDNLLPMSPEEFDEVSRIVGSVEFDSM
modifications: tyrosine-phosphorylated (phospho-Tyr701) after stimulation of cells with IFNγ
notes: STAT1, human; also called E411 mutant; source: HeLa cells, transfected (pEGFP-N1-STAT1 with point mutation), IFNγ-stimulated, in whole cell lysate; not shown: GFP, C-terminal, kept
For B2, the binding was “binds”.
